## Melanoma cell counts after drug treatment

Data from the primary screen of doi:10.1371/journal.pone.0140310, rounded.

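The test systems are human melanoma cell lines, treated with a pair of drugs for 72 h and then stained and imaged. Each value is the count of nuclei relative to DMSO-treated wells, in %, so that 100 equals the control. Concentrations were fixed for each drug; these are the higher of two levels. The file gives one value for each pair and line, without errors, so small differences may be noise.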 This is part of the screen, not chosen by result. A dash means that no value is listed here.

Every entry is a combination with sunitinib at 2000 nM: CCN(CC)CCNC(=O)c1c(C)[nH]c(/C=C2\C(=O)Nc3ccc(F)cc32)c1C

Drug key:
vincristine (0.5 nM): CC[C@]1(O)C[C@H]2CN(CCc3c([nH]c4ccccc34)[C@@](C(=O)OC)(c3cc4c(cc3OC)N(C=O)[C@H]3[C@@](O)(C(=O)OC)[C@H](OC(C)=O)[C@]5(CC)C=CCN6CC[C@]43[C@@H]65)C2)C1
CX-4945 (2000 nM): O=C(O)c1ccc2c(c1)nc(Nc1cccc(Cl)c1)c1ccncc12
JZL184 (5000 nM): O=C(Oc1ccc([N+](=O)[O-])cc1)N1CCC(C(O)(c2ccc3c(c2)OCO3)c2ccc3c(c2)OCO3)CC1
vismodegib (5000 nM): CS(=O)(=O)c1ccc(C(=O)Nc2ccc(Cl)c(-c3ccccn3)c2)c(Cl)c1
T0901317 (7000 nM): O=S(=O)(c1ccccc1)N(CC(F)(F)F)c1ccc(C(O)(C(F)(F)F)C(F)(F)F)cc1
ruxolitinib (5000 nM): N#CC[C@H](C1CCCC1)n1cc(-c2ncnc3[nH]ccc23)cn1
PF-562271 (400 nM): CN(c1ncccc1CNc1nc(Nc2ccc3c(c2)CC(=O)N3)ncc1C(F)(F)F)S(C)(=O)=O
nilotinib (1000 nM): Cc1cn(-c2cc(NC(=O)c3ccc(C)c(Nc4nccc(-c5cccnc5)n4)c3)cc(C(F)(F)F)c2)cn1
PF-04217903 (5000 nM): OCCn1cc(-c2cnc3nnn(Cc4ccc5ncccc5c4)c3n2)cn1
XAV939 (10000 nM): Oc1nc(-c2ccc(C(F)(F)F)cc2)nc2c1CSCC2
FK866 (50 nM): O=C(/C=C/c1cccnc1)NCCCCC1CCN(C(=O)c2ccccc2)CC1
BMS-536924 (1000 nM): Cc1cc(N2CCOCC2)cc2[nH]c(-c3c(NC[C@@H](O)c4cccc(Cl)c4)cc[nH]c3=O)nc12
FH535 (5000 nM): Cc1cc([N+](=O)[O-])ccc1NS(=O)(=O)c1cc(Cl)ccc1Cl
A-769662 (10000 nM): N#Cc1c(O)c2c(-c3ccc(-c4ccccc4O)cc3)csc2[nH]c1=O
GW9662 (10000 nM): O=C(Nc1ccccc1)c1cc([N+](=O)[O-])ccc1Cl
bexarotene (10000 nM): C=C(c1ccc(C(=O)O)cc1)c1cc2c(cc1C)C(C)(C)CCC2(C)C
veliparib (7000 nM): C[C@]1(c2nc3c(C(N)=O)cccc3[nH]2)CCCN1
LFM-A13 (10000 nM): C/C(O)=C(\C#N)C(=O)Nc1cc(Br)ccc1Br
Src-I1 (10000 nM): COc1cc2ncnc(Nc3ccc(Oc4ccccc4)cc3)c2cc1OC
embelin (6000 nM): CCCCCCCCCCCC1=C(O)C(=O)C=C(O)C1=O
lenalidomide (5000 nM): Nc1cccc2c1CN(C1CCC(=O)NC1=O)C2=O (stereo not shown)
STA-4783 (30 nM): CN(NC(=O)CC(=O)NN(C)C(=S)c1ccccc1)C(=S)c1ccccc1
lestaurtinib (20 nM): C[C@]12O[C@H](C[C@]1(O)CO)n1c3ccccc3c3c4c(c5c6ccccc6n2c5c31)CNC4=O
enzastaurin (4000 nM): Cn1cc(C2=C(c3cn(C4CCN(Cc5ccccn5)CC4)c4ccccc34)C(=O)NC2=O)c2ccccc21
SNS-314 (4 nM): O=C(Nc1cccc(Cl)c1)Nc1ncc(CCNc2ncnc3ccsc23)s1
YM155 (2 nM): COCC[n+]1c2c(n(Cc3cnccn3)c1C)C(=O)c1ccccc1C2=O
GW441756 (2000 nM): Cn1cc(/C=C2\C(=O)Nc3cccnc32)c2ccccc21

Second drug	COLO 800	COLO 829	WM451Lu	COLO 792	WM3619	C32
lestaurtinib	57.5	86.6	62.1	33.9	51.2	60.0
Src-I1	70.3	86.6	56.0	44.9	45.9	77.3
STA-4783	9.1	74.1	55.3	20.4	-	9.5
CX-4945	45.8	73.3	65.0	40.4	61.1	68.7
SNS-314	57.4	102	61.5	48.5	81.7	51.4
enzastaurin	36.3	99.9	87.3	53.6	92.8	90.3
lenalidomide	57.3	115	77.5	62.6	57.9	79.5
PF-562271	49.5	96.5	64.2	59.3	72.8	70.4
veliparib	44.1	124	88.8	46.5	81.3	69.9
FK866	16.1	71.7	65.1	25.9	63.9	80.8
GW441756	79.5	99.5	66.0	54.3	68.3	82.0
nilotinib	54.9	124	59.6	80.1	94.1	85.8
embelin	50.2	94.4	56.7	40.0	87.9	80.9
FH535	53.8	78.3	72.5	48.7	82.6	75.5
XAV939	56.2	123	69.0	34.8	74.6	93.3
A-769662	63.0	113	82.0	53.3	79.4	90.9
bexarotene	76.6	128	87.9	78.4	70.5	97.4
vismodegib	42.0	114	62.9	39.6	66.9	91.4
GW9662	59.3	69.1	71.9	80.4	58.4	86.0
LFM-A13	57.0	116	59.8	60.0	75.8	79.0
JZL184	71.5	95.9	71.3	51.1	70.2	97.1
PF-04217903	49.1	124	78.0	57.5	-	90.2
ruxolitinib	71.1	129	71.1	54.2	99.7	87.5
T0901317	50.1	96.1	64.4	68.6	-	72.1
YM155	27.2	123	41.5	62.9	81.4	80.2
BMS-536924	37.9	102	61.6	35.5	-	63.5
vincristine	59.9	108	36.5	53.7	43.0	74.7

2 of the entries, repeated:

| Second drug | COLO 800 | COLO 829 | WM451Lu | COLO 792 | WM3619 | C32 |
|---|---|---|---|---|---|---|
| PF-562271 | 49.5 | 96.5 | 64.2 | 59.3 | 72.8 | 70.4 |
| GW9662 | 59.3 | 69.1 | 71.9 | 80.4 | 58.4 | 86.0 |